No constants are given. Whether binding was seen depends on the method and setting. For part of these data: Binding seen in cells or lysates may run through a third protein. Some binding calls cover weakened binding; strength is not graded here. Sequences can lack the tags named with a protein.
T1: His-tagged Htdy (Rv3389) (Mycobacterium tuberculosis) (UniProt I6YBZ8)
T1 sequence: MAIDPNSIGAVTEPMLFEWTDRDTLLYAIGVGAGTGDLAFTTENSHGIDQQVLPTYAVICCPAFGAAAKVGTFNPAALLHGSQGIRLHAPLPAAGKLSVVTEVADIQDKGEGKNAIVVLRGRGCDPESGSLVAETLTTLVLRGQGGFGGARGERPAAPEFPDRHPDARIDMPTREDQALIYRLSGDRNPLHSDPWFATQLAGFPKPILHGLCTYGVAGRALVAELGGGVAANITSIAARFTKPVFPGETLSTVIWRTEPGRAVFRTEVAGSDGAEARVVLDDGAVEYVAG

Amino acid sequences for entries named in this document (tags omitted).
UniProt P96825: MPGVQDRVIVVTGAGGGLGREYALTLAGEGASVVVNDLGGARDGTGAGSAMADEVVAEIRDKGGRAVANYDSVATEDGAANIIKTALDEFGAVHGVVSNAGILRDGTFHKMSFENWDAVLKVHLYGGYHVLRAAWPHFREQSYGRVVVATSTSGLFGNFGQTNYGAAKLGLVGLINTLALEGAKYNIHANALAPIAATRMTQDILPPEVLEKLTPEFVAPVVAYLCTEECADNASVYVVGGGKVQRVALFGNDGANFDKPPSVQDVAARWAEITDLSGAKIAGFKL

B1: His-tagged Htdy (Rv3389) (enzyme, UniProt I6YBZ8 1-290)
chain: T1 sequence

Experiments:
[1] = molecular target: T1, His-tagged Htdy (Rv3389) (Mycobacterium tuberculosis); test: pull-down
[2] = molecular target: GST-tagged Rv0148 (Mycobacterium tuberculosis) (UniProt P96825); test: pull-down; reverse orientation: GST-tagged Rv0148 lysate as bait, His-tagged recombinant Htdy as prey; details of this orientation not told
[3] = molecular target: GST-tagged Rv0148 (Mycobacterium tuberculosis) (UniProt P96825); test: far-Western, overlay or dot blot

Molecule	binding [1]	binding [2]	binding [3]
GST-tagged Rv0148 (from UniProt P96825 1-286) (enzyme)	binds	–	–
B1	–	binds	binds

— article PMC7161113
